PubChem BioAssay AID493246, Drosophila RNAi Screening Center, 2011
The deposit covers about 21,000 reagents; below is a random part of those that have a named target and a result. Over the whole deposit, 429 (2%) are marked active. 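Values are raw and not normalised between plates; calls rest on per-plate z-scores that were not deposited.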 Names joined by + are all predicted targets of the reagent. The record does not give: the amount of reagent, the time to read-out.

Assay: 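Genes fly cells need to grow and stay alive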 (primary screen)
Cell system: Drosophila Kc and S2R+ cells
Reagents: long dsRNA against Drosophila genes
Measured: 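Raw, unnormalised count of remaining cells in each well; per-plate z-scores of cell number underlie the calls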
Scale: Kc cell number and S2R+ cell number: higher = more cells remaining
Active means: 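Counted as a hit if cell number falls by a z-score of at least 3 within its plate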

Kc cell number, rep 1 | Kc cell number, rep 2 | S2R+ cell number, rep 1 | S2R+ cell number, rep 2 | activity call | gene | amplicon
1.25e6 | 1.36e6 | 1.28e6 | 1.39e6 | inactive | Vha16-3 | DRSC10872
1.22e6 | 1.39e6 | 1.09e6 | 1.23e6 | inactive | ND-13B | DRSC10643
1.28e6 | 1.42e6 | 1.14e6 | 1.29e6 | inactive | modSP | DRSC16726
1.41e6 | 1.44e6 | 1.16e6 | 1.29e6 | inactive | modSP | DRSC16857
1.33e6 | 1.38e6 | 1.31e6 | 1.41e6 | inactive | CG7634 | DRSC11843
1.62e6 | 1.63e6 | 1.42e6 | 1.43e6 | inactive | CG8834 | DRSC07283
5.88e5 | – | 8.35e5 | – | inactive | FucT6 | DRSC19848
1.64e6 | 1.59e6 | 1.44e6 | 1.40e6 | inactive | aux | DRSC12161
1.31e6 | 1.34e6 | 1.18e6 | 1.27e6 | inactive | Ube4B | DRSC03277
1.40e6 | 1.55e6 | 1.30e6 | 1.42e6 | inactive | CG18231 | DRSC10307
1.45e6 | 1.44e6 | 1.18e6 | 1.26e6 | inactive | CG7432 | DRSC16243
1.50e6 | 1.37e6 | 1.15e6 | 1.31e6 | inactive | Cpr62Bb | DRSC08404
1.44e6 | 1.48e6 | 1.04e6 | 1.10e6 | inactive | Cadps | DRSC21057
1.61e6 | 1.66e6 | 1.26e6 | 1.34e6 | inactive | CG2017 | DRSC12293
5.31e5 | – | 8.57e5 | – | inactive | Drice | DRSC16715

5 entries from above, sorted by “Kc cell number, rep 1”, low to high.
Kc cell number, rep 1 | Kc cell number, rep 2 | S2R+ cell number, rep 1 | S2R+ cell number, rep 2 | activity call | gene | amplicon
1.40e6 | 1.55e6 | 1.30e6 | 1.42e6 | inactive | CG18231 | DRSC10307
1.44e6 | 1.48e6 | 1.04e6 | 1.10e6 | inactive | Cadps | DRSC21057
1.45e6 | 1.44e6 | 1.18e6 | 1.26e6 | inactive | CG7432 | DRSC16243
1.50e6 | 1.37e6 | 1.15e6 | 1.31e6 | inactive | Cpr62Bb | DRSC08404
1.61e6 | 1.66e6 | 1.26e6 | 1.34e6 | inactive | CG2017 | DRSC12293

Continued.
Kc cell number, rep 1 | Kc cell number, rep 2 | S2R+ cell number, rep 1 | S2R+ cell number, rep 2 | activity call | gene | amplicon
1.48e6 | 1.53e6 | 1.02e6 | 1.15e6 | inactive | CG13784 | DRSC00974
1.50e6 | 1.44e6 | 4.74e5 | 7.42e5 | inactive | CG13784 | DRSC02287
1.62e6 | 1.68e6 | 1.12e6 | 1.19e6 | inactive | HUWE1 | DRSC20089
1.51e6 | 1.59e6 | 1.06e6 | 1.22e6 | inactive | Sas-6 | DRSC15061
5.32e5 | – | 8.58e5 | – | inactive | CG34203 | DRSC03855
1.57e6 | 1.65e6 | 1.06e6 | 1.16e6 | inactive | slmb | DRSC17056
1.66e6 | 1.66e6 | 1.17e6 | 1.33e6 | inactive | CG13088 | DRSC02192
1.42e6 | 1.41e6 | 9.94e5 | 1.15e6 | inactive | shn | DRSC05266
1.31e6 | 1.43e6 | 9.36e5 | 9.93e5 | inactive | shn | DRSC07681
1.55e6 | 1.65e6 | 1.14e6 | 1.21e6 | inactive | mre11 | DRSC03570
1.33e6 | 1.26e6 | 1.02e6 | 1.11e6 | inactive | Lmpt | DRSC09450
1.52e6 | 1.67e6 | 1.28e6 | 1.38e6 | inactive | Lmpt | DRSC09864
1.48e6 | 1.50e6 | 1.33e6 | 1.27e6 | inactive | Lmpt | DRSC09865
1.36e6 | 1.54e6 | 1.26e6 | 1.39e6 | inactive | Lmpt | DRSC09866
1.36e6 | 1.44e6 | 1.26e6 | 1.34e6 | inactive | Lmpt | DRSC11107
1.46e6 | 1.52e6 | 1.06e6 | 1.22e6 | inactive | Rrp40 | DRSC00074
6.02e5 | – | 9.44e5 | – | inactive | MCTS1 | DRSC18393
1.58e6 | 1.64e6 | 1.38e6 | 1.44e6 | inactive | ry | DRSC17048
1.45e6 | 1.57e6 | 1.17e6 | 1.32e6 | inactive | CG8997 | DRSC01900
5.60e5 | – | 8.09e5 | – | inactive | opm | DRSC20141
1.54e6 | 1.59e6 | 1.15e6 | 1.24e6 | inactive | CG8320 + ATPCL | DRSC07147
1.59e6 | 1.57e6 | 1.21e6 | 1.28e6 | inactive | Npc2c | DRSC15523
1.44e6 | 1.54e6 | 1.21e6 | 1.31e6 | inactive | Abl | DRSC09661
1.35e6 | 1.41e6 | 1.19e6 | 1.19e6 | inactive | Efhc1.2 | DRSC06027
1.38e6 | 1.37e6 | 7.16e5 | 9.23e5 | inactive | Rbsn-5 | DRSC03094
